In PMC7862700:
This is a selection; strong and weak results do not stand in their true shares. For part of these data: At the low end of the ranking the order means little. The list shows a part of the results. For part of these data: Construct or isoform of the protein are uncertain.

Target: T1, GABPA (UniProt Q06546)
T1 sequence: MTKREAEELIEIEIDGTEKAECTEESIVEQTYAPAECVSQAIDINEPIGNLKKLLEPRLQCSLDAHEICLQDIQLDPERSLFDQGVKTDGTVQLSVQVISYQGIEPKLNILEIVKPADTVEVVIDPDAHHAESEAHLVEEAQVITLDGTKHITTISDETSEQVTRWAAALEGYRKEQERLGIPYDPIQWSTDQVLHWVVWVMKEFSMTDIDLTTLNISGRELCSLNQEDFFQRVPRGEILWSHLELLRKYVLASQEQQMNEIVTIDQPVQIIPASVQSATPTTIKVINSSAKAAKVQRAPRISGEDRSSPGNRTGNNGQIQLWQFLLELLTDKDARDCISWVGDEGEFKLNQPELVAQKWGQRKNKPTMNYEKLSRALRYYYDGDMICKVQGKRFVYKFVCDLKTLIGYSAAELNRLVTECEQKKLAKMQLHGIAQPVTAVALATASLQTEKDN
Test: DAPPL (digital affinity profiling via proximity ligation, sequencing)
Conditions: 10 mM Tris-HCl pH 7.5, 50 mM NaCl, 1 mM DTT, 4% glycerol, room temperature, 30 min; GST-TFs on glutathione beads, 16-mer random dsDNA library, 0.1% …; high values mean tight binding; double strand, one strand shown; scale: fold enrichment (6-mer frequency, TF over GST control)

Question: For AGCAGC, which binding signal is on record?
Answer: 1.11

Question: With TGGTTA as the sequence, how does the binding signal read?
Answer: 1.09

Question: For ACCGAT, which binding signal is on record?
Answer: 1.2

Question: Which binding signal does the source give for TAATTG here?
Answer: 1.38

Question: How did the binding signal turn out when TACAAG was run?
Answer: 0.987

Question: With AATGTC as the sequence, how does the binding signal read?
Answer: 1.23

Question: Which binding signal does the source give for TGTGAC here?
Answer: 1.15

Question: With CTATAC as the sequence, how does the binding signal read?
Answer: 1.35

Question: Which binding signal does the source give for TGACTT here?
Answer: 1.38

Question: Which binding signal does the source give for CGACCT here?
Answer: 1.54

Question: Which binding signal does the source give for AGCTAA here?
Answer: 0.959

Question: How did the binding signal turn out when GAATCC was run?
Answer: 1.08

Question: Which binding signal does the source give for AAACCA here?
Answer: 1.14

Question: TACCCA was tested. Which binding signal did it give?
Answer: 1.12

Question: AACCTC was tested. Which binding signal did it give?
Answer: 1.28

Question: Which binding signal does the source give for CGGCTC here?
Answer: 1.2

Question: CAAAAC was tested. Which binding signal did it give?
Answer: 1.3

Question: With CGTCCG as the sequence, how does the binding signal read?
Answer: 1.24

Question: For GAAATA, which binding signal is on record?
Answer: 1.48

Question: AATAGC was tested. Which binding signal did it give?
Answer: 1.17

Question: Which binding signal does the source give for TCCCTA here?
Answer: 1.26

Question: TTACTC was tested. Which binding signal did it give?
Answer: 1.26

Question: How did the binding signal turn out when TCTAGT was run?
Answer: 1.17

Question: How did the binding signal turn out when GTAACT was run?
Answer: 1.22

Target: T2, ETS1 (UniProt P14921)
T2 sequence: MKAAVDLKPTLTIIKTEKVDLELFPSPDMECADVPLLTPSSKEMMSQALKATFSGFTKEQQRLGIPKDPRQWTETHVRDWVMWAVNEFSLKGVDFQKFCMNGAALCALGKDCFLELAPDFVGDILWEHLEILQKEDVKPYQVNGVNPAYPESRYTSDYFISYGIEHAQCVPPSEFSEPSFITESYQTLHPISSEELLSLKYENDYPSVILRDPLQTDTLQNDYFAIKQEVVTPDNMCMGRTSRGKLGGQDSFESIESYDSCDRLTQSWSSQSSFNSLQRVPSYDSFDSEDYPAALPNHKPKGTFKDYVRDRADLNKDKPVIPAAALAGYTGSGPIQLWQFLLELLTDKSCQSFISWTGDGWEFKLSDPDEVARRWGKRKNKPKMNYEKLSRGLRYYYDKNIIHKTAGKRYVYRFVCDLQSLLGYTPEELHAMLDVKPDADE
Test: as above
Conditions: 10 mM Tris-HCl pH 7.5, 50 mM NaCl, 1 mM DTT, 4% glycerol, room temperature, 30 min; GST-TFs on glutathione beads, 16-mer random dsDNA library, 0.1% …; high values mean tight binding; double strand, one strand shown; scale: fold enrichment (6-mer frequency, TF over GST control)

Question: How did the binding signal turn out when TACTCT was run?
Answer: 1.32

Question: AGCAGC was tested. Which binding signal did it give?
Answer: 1.17

Question: For TGGTTA, which binding signal is on record?
Answer: 1.12

Question: How did the binding signal turn out when ACCGAT was run?
Answer: 1.11

Question: With TAATTG as the sequence, how does the binding signal read?
Answer: 1.37

Question: How did the binding signal turn out when GATGAA was run?
Answer: 1.26

Question: With TACAAG as the sequence, how does the binding signal read?
Answer: 1.02

Question: With AATGTC as the sequence, how does the binding signal read?
Answer: 1.17

Question: Which binding signal does the source give for TGTGAC here?
Answer: 1.09

Question: How did the binding signal turn out when CTATAC was run?
Answer: 1.29

Question: With TTACAC as the sequence, how does the binding signal read?
Answer: 1.25

Question: With ACCGAC as the sequence, how does the binding signal read?
Answer: 1.33

Question: For TGACTT, which binding signal is on record?
Answer: 1.46

Question: With CAAGGT as the sequence, how does the binding signal read?
Answer: 1.06

Question: How did the binding signal turn out when TAAAGT was run?
Answer: 1.2

Question: With AATTAG as the sequence, how does the binding signal read?
Answer: 1.15

Question: With CGACCT as the sequence, how does the binding signal read?
Answer: 1.57

Question: With AGCTAA as the sequence, how does the binding signal read?
Answer: 1.04

Question: How did the binding signal turn out when CAGCTT was run?
Answer: 1.21

Question: For GTCTCA, which binding signal is on record?
Answer: 1.37

Question: Which binding signal does the source give for GAATCC here?
Answer: 1.12

Question: AAACCA was tested. Which binding signal did it give?
Answer: 1.14

Question: For TACCCA, which binding signal is on record?
Answer: 1.09

Question: With AACCTC as the sequence, how does the binding signal read?
Answer: 1.15

Question: With AATGCA as the sequence, how does the binding signal read?
Answer: 1.3

Question: With CGGCTC as the sequence, how does the binding signal read?
Answer: 1.22

Question: For CGTTCG, which binding signal is on record?
Answer: 1.26

Question: For CAAAAC, which binding signal is on record?
Answer: 1.31

Question: With CGTCCG as the sequence, how does the binding signal read?
Answer: 1.18

Question: With GAAATA as the sequence, how does the binding signal read?
Answer: 1.5

Question: TCTAGC was tested. Which binding signal did it give?
Answer: 1.23

Question: For AATAGC, which binding signal is on record?
Answer: 1.05

Question: With TTAGAA as the sequence, how does the binding signal read?
Answer: 1.18

Question: Which binding signal does the source give for TCCCTA here?
Answer: 1.33

Question: How did the binding signal turn out when TTACTC was run?
Answer: 1.26

Question: With ACCATA as the sequence, how does the binding signal read?
Answer: 1.16

Question: For TCTAGT, which binding signal is on record?
Answer: 1.14

Question: GTAACT was tested. Which binding signal did it give?
Answer: 1.28

Question: How did the binding signal turn out when ATCATA was run?
Answer: 1.09
